This test deals with T1, wild-type D3R (hD3R) (Homo sapiens, UniProt P35462).
T1 construct: gene DRD3; full-length with N-terminal murine 5-HT3A signal peptide and FLAG tag, called wild-type
Description: biochemical. Format: binding.

Sequences of proteins named here, by UniProt entry; tags and fusion partners are left off. A change or cut given only in a name is not applied to a line headed by its entry.
UniProt P35462, whole entry: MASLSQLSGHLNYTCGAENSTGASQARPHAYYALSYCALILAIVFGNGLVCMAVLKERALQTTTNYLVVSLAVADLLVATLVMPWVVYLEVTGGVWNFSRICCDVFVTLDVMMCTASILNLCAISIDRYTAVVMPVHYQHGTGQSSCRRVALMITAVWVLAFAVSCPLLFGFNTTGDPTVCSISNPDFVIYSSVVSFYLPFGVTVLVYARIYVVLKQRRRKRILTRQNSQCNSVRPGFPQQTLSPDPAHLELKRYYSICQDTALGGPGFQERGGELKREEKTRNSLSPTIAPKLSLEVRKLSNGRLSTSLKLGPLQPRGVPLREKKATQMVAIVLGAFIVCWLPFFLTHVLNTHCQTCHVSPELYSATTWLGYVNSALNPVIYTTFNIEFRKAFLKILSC

SMILES strings stand for the structures.

The Ki is a measure of affinity in units of concentration, obtained from inhibition or displacement. Read a low Ki as tighter binding. With `O=c1[nH]c2ccccc2n1CCCN1CCC(n2c(=O)[nH]c3cc(Cl)ccc32)CC1` [domperidone], the Ki was 1.1 nM.

Source of the values: paper PMC7503597 (International Journal of Molecular Sciences, 2020).
